Test results taken from patent publication US20220056097A1.
No constants are given. Whether binding was seen depends on the method and setting. Some results given as binding are weak or reduced against the parent protein; the word gives no strength.

Protein sequences, listed by entry. Tags and fused reporters are not part of them. Lines headed by an entry give the natural chain unless they say otherwise; changes in a name come on top. Residues count along the entry.
UniProt Q8VZS8: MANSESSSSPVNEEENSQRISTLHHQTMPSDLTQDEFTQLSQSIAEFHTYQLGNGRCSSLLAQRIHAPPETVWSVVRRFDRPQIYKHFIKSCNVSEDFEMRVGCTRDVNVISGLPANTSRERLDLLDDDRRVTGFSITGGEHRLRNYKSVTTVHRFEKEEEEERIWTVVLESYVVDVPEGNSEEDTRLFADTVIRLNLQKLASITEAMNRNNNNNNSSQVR
UniProt Q13263, residues 2-835: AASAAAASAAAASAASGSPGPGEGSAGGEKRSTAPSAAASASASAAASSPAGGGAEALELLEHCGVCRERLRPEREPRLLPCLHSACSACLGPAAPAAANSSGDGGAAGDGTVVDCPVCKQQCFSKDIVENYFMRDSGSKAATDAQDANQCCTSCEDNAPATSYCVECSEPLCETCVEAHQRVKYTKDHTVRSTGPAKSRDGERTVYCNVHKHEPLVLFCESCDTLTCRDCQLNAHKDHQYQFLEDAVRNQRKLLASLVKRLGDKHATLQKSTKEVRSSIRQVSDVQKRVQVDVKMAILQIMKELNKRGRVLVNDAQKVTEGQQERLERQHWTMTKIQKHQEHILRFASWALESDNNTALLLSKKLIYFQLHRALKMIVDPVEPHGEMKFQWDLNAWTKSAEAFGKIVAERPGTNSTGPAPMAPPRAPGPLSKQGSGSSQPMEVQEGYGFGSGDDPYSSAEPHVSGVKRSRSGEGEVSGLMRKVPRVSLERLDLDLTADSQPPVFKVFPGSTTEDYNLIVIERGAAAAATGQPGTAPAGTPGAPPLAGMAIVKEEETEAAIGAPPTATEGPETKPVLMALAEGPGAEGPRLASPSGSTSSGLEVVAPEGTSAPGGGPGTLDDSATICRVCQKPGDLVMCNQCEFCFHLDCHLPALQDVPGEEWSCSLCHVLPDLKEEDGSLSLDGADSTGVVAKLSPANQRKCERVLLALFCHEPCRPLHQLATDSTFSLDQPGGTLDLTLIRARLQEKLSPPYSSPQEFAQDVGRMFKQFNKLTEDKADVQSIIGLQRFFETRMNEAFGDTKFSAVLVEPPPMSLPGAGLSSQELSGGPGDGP
UniProt P45973: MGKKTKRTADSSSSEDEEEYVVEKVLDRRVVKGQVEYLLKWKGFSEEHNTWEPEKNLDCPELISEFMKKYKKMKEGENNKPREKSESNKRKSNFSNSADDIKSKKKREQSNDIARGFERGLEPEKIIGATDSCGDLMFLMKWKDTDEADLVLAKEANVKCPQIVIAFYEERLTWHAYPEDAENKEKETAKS

Experiments:
[1] = target: PYL1-sfGFP-KRAB (UniProt Q8VZS8); test: immunostaining of KAP1 and linear fluorescence tracing at ABA-induced PYL1-sfGFP-KRAB foci in U2OS cells, 2 days 100 µM ABA
[2] = target: PYL1-sfGFP-KRAB (UniProt Q8VZS8); test: immunostaining of KAP1 and linear fluorescence tracing (FIG. 78)
[3] = target: PYL1-sfGFP-KRAB (UniProt Q8VZS8); test: immunostaining at ABA-induced KRAB foci in U2OS cells
[4] = target: PYL1-sfGFP-KRAB (UniProt Q8VZS8); test: confocal co-localization and linear fluorescence tracing at ABA-induced PYL1-sfGFP-KRAB foci in U2OS cells, 2 days ABA; filing describes recruitment as indirect via KAP1
[5] = target: PYL1-sfGFP-KRAB (UniProt Q8VZS8); test: confocal co-localization and linear fluorescence tracing (FIG. 77)
[6] = target: PYL1-sfGFP-KRAB (UniProt Q8VZS8); test: confocal co-localization at ABA-induced KRAB foci in U2OS cells

Measured: binding

KAP1 (from UniProt Q13263 2-835)
binds: [1] | [2] | [3]

mCherry-HP1α (from UniProt P45973 1-191)
binds: [4] | [5] | [6]
